Laboratory results taken from the supplement of paper PMC12823440, “Inhibitors supercharge kinase turnover through native proteolytic circuits” (Nature, 2025).
The list shows a part of the results. Hit calls seldom repeat between salt and free forms of one compound.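 Kinases, fused to nanoluciferase, were expressed in K562 cells; luminescence was measured every 4 h from 2 to 18 h as percent of control (DMSO = 100%, positive control = 0%). A time point is decreased if signal falls significantly (2 sigma). Hits were called by the authors by a rule that is not shown; the count of time points alone does not decide it.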

The chains behind the UniProt entries cited, without tags or fusion partners. Where a name states a change or a piece, a line headed by the entry shows the natural chain unless it says otherwise.
UniProt Q9Y616: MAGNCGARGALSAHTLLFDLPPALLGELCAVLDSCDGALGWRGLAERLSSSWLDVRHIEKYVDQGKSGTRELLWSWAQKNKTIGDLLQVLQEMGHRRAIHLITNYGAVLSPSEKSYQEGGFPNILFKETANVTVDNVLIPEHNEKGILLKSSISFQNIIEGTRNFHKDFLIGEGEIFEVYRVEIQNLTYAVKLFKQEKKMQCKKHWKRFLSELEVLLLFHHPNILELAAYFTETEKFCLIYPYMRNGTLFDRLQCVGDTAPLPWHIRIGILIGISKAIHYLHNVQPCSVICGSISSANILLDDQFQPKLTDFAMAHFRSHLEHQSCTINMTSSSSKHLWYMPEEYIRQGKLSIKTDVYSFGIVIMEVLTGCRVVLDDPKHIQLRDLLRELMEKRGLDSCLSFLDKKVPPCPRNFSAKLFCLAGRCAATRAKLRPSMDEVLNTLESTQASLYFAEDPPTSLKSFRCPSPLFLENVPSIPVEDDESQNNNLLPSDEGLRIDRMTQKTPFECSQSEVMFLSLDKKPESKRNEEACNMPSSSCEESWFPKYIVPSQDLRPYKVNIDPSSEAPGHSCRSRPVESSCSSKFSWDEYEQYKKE
UniProt P23458: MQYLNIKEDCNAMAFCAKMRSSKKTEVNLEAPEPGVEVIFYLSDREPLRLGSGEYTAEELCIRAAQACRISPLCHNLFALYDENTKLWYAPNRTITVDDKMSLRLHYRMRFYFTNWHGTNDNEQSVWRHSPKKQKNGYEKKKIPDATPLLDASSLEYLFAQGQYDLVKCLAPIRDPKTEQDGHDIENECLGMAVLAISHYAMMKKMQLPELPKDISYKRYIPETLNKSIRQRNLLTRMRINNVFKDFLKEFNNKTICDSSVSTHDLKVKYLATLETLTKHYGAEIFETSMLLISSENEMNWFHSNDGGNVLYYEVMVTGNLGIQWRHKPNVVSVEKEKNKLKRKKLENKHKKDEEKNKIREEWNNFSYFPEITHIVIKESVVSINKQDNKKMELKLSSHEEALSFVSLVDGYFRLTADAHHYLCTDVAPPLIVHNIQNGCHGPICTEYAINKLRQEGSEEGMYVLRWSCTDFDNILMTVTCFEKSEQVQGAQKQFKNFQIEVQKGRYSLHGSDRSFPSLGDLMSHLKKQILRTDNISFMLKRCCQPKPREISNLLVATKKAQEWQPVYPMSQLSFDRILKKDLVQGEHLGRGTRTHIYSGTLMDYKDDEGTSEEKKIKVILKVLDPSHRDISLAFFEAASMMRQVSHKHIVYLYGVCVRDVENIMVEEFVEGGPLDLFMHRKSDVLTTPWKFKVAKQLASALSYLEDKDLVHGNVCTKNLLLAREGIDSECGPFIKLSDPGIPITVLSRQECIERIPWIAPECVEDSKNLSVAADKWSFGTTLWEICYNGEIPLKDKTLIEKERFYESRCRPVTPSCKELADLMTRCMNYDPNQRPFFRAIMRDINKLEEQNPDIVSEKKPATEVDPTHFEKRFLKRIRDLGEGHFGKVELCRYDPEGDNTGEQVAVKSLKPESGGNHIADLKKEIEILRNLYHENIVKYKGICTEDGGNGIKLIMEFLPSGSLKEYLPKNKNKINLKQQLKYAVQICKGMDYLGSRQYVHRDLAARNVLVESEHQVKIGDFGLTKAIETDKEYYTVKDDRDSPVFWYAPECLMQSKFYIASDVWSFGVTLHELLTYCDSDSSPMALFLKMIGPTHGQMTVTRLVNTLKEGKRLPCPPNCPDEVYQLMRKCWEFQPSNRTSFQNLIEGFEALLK
UniProt P06239: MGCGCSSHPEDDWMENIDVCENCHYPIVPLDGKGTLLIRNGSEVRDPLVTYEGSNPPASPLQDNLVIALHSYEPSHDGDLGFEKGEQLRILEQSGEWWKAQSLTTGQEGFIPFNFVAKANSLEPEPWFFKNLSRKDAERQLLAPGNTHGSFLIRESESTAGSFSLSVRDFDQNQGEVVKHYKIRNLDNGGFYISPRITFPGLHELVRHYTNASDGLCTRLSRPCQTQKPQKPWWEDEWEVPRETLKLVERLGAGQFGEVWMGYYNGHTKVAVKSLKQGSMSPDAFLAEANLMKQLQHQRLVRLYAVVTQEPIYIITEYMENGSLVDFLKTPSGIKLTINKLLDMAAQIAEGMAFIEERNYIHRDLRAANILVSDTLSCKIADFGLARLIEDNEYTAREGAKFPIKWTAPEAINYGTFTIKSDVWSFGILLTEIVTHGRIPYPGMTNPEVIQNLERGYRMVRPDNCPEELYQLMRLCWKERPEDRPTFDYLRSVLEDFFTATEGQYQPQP
UniProt P53667: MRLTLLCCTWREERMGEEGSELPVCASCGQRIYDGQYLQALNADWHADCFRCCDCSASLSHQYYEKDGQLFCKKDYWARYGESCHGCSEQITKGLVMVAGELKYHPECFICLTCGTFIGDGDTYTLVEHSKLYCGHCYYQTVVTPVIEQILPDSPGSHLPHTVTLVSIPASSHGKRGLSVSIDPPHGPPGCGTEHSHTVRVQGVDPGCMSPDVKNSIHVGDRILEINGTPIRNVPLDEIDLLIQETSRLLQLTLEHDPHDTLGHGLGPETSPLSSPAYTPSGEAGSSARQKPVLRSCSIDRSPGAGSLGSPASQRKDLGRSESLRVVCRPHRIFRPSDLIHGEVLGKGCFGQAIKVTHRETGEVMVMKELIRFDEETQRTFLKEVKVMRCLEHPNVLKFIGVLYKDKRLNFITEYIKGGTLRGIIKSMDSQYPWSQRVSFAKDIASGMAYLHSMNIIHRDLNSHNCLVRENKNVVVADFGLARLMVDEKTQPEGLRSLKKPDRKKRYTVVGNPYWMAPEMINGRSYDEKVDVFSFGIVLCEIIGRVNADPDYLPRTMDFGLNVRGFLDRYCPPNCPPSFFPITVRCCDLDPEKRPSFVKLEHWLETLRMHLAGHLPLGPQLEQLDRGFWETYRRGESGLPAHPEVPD
UniProt P53671: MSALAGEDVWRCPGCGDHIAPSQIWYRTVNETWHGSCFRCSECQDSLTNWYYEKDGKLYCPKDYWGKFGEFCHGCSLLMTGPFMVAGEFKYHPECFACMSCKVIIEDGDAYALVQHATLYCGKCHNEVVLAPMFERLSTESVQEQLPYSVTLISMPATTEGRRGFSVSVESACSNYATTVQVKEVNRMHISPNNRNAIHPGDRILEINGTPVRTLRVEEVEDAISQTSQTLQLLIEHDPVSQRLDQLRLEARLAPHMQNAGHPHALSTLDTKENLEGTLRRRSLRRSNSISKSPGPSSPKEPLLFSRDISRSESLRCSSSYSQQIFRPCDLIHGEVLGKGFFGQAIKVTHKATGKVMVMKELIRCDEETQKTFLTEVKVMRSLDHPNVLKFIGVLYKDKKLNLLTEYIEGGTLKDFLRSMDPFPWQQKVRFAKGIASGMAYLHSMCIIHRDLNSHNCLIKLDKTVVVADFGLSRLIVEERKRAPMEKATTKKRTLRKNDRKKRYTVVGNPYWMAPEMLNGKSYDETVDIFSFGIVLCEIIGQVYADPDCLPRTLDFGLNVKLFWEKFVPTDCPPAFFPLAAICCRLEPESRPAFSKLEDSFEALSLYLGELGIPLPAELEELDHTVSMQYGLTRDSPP
UniProt Q8IWU2: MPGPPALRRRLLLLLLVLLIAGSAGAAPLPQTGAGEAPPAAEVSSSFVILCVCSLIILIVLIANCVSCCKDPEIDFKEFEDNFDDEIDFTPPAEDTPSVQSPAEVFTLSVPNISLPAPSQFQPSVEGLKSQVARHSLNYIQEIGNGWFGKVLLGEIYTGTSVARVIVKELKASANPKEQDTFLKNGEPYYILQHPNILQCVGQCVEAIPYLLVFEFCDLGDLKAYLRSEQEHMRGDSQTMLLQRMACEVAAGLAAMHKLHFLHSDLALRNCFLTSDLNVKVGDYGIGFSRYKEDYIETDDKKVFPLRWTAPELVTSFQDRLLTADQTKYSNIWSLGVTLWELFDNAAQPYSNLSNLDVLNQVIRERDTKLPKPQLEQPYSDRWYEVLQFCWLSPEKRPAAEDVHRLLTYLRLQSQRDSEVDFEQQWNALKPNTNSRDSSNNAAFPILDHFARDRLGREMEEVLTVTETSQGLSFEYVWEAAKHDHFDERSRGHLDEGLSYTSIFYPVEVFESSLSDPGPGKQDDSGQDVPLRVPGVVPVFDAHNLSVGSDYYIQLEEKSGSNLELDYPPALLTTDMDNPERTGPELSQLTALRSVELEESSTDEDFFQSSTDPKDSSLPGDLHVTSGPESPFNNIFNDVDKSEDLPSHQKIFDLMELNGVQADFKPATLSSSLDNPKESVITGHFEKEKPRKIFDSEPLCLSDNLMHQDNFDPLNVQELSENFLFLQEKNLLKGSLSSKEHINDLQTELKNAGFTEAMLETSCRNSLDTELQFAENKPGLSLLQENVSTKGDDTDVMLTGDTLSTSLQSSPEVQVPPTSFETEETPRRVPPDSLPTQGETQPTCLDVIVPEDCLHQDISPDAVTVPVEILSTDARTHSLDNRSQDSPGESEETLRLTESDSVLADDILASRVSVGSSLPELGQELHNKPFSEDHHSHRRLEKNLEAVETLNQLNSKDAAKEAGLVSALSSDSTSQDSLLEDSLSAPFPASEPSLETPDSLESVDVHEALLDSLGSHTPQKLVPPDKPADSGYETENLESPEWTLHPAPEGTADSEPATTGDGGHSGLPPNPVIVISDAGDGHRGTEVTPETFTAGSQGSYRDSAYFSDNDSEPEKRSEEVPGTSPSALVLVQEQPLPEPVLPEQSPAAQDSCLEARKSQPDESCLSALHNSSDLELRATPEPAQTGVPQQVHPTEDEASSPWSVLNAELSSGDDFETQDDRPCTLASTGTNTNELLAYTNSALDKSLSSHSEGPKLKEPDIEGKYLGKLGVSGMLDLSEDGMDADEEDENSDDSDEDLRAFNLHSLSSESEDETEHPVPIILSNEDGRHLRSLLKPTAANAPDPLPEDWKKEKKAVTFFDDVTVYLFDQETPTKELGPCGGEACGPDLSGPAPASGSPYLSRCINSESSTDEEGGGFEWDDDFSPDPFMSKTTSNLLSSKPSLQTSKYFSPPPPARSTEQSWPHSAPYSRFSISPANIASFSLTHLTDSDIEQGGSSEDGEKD
UniProt P07948: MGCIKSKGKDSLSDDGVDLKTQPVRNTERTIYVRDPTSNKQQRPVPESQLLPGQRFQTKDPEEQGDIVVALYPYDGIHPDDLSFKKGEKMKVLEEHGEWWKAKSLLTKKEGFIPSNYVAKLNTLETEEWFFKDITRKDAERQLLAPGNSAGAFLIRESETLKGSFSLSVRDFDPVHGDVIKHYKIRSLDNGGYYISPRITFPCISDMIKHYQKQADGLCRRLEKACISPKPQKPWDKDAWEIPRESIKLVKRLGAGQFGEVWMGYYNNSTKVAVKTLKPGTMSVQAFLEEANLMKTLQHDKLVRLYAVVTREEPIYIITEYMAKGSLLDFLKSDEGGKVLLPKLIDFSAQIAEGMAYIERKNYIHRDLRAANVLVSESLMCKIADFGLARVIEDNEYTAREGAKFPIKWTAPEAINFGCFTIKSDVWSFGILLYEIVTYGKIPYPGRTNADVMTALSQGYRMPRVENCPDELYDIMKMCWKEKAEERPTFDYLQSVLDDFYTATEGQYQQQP
UniProt Q12851: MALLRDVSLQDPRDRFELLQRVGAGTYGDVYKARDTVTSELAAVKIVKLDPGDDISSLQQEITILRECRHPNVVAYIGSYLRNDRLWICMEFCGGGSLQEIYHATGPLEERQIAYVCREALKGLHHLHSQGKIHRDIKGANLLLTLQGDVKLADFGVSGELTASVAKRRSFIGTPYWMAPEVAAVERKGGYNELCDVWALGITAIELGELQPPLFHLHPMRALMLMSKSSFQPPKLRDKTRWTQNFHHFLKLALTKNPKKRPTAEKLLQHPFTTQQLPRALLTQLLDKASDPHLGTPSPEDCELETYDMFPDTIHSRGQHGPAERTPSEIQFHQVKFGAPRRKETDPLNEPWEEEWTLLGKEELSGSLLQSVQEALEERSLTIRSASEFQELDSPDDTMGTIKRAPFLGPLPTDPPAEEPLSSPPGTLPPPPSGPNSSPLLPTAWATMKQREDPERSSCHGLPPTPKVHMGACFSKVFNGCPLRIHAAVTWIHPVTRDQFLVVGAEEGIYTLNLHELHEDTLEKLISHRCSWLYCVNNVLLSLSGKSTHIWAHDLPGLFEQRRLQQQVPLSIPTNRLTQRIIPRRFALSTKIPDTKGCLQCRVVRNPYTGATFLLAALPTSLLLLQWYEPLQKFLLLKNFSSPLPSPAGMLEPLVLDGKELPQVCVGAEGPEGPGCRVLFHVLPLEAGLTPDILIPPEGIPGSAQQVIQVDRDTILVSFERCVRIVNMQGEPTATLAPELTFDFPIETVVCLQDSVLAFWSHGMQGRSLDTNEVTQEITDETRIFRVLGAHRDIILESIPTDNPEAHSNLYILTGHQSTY

Experiments:
Experiment in all cases: kinase-Nluc reporter destabilization hit call (1 = scored as downregulated) (binary); higher = compound decreases kinase abundance
Settings in all cases: K562; 2-18 h
[1] = target: IRAK3 (UniProt Q9Y616)
[2] = target: JAK1 (UniProt P23458)
[3] = target: LCK (UniProt P06239)
[4] = target: LIMK1 (UniProt P53667)
[5] = target: LIMK2 (UniProt P53671)
[6] = target: LMTK2 (UniProt Q8IWU2)
[7] = target: LYN (UniProt P07948)
[8] = target: MAP2K1 (UniProt Q02750)
[9] = target: MAP2K2 (UniProt P36507)
[10] = target: MAP4K2 (UniProt Q12851)

Measured: kinase-Nluc reporter destabilization hit call

OC[C@H]1O[C@@H](Oc2cc3c(O)cc(O)cc3[o+]c2-c2cc(O)c(O)c(O)c2)[C@H](O)[C@@H](O)[C@@H]1O [Delphinidin 3-glucoside (chloride)] (10 µM)
inactive: [1] 0 | [2] 0 | [3] 0 | [4] 0 | [5] 0 | [6] 0 | [7] 0 | [8] 0 | [9] 0 | [10] 0

CC(C)=CCC[C@](C)(O[C@@H]1O[C@H](CO)[C@@H](O)[C@H](O)[C@H]1O)[C@H]1CC[C@]2(C)[C@@H]1[C@H](O)C[C@@H]1[C@@]3(C)CC[C@H](O)C(C)(C)[C@@H]3[C@@H](O[C@@H]3O[C@H](CO)[C@@H](O)[C@H](O)[C@H]3O[C@@H]3O[C@@H](C)[C@H](O)[C@@H](O)[C@H]3O)C[C@]12C [Ginsenoside Re] (10 µM)
inactive: [1] 0 | [2] 0 | [3] 0 | [4] 0 | [5] 0 | [6] 0 | [7] 0 | [8] 0 | [9] 0 | [10] 0

CCN(CC)S(=O)(=O)c1ccc(OC)c(N2CCN(C(=O)c3ccc(F)cc3C(F)(F)F)CC2)c1 (10 µM)
inactive: [1] 0 | [2] 0 | [3] 0 | [4] 0 | [5] 0 | [6] 0 | [7] 0 | [8] 0 | [9] 0 | [10] 0

O=C(Nc1ccc(F)cc1F)[C@H](NC(=S)Nc1cc(C(F)(F)F)cc(C(F)(F)F)c1)c1ccccc1 (2.5 µM)
inactive: [1] 0 | [2] 0 | [3] 0 | [4] 0 | [5] 0 | [6] 0 | [7] 0 | [8] 0 | [9] 0 | [10] 0

CC(C)CN[C@H]1CS(=O)(=O)C[C@@H]1S(=O)(=O)c1ccc(Cl)cc1 (10 µM)
inactive: [1] 0 | [2] 0 | [3] 0 | [4] 0 | [5] 0 | [6] 0 | [7] 0 | [8] 0 | [9] 0 | [10] 0

COc1ccc(Cl)cc1NC(=O)Nc1cc(C)nc2ccccc12 (2.5 µM)
inactive: [1] 0 | [2] 0 | [3] 0 | [4] 0 | [5] 0 | [6] 0 | [7] 0 | [8] 0 | [9] 0 | [10] 0

C=CC(=O)Nc1cccc(C)c1Nc1ncc2cc(-c3c(Cl)c(OC)cc(OC)c3Cl)ccc2n1 (2.5 µM)
inactive: [1] 0 | [2] 0 | [3] 0 | [4] 0 | [5] 0 | [6] 0 | [7] 0 | [8] 0 | [9] 0 | [10] 0

O=C(NCCCNC(=O)Nc1cccc(C2=NCCN2)c1)Nc1cccc(C2=NCCN2)c1 [p32 Inhibitor M36] (10 µM)
inactive: [1] 0 | [2] 0 | [3] 0 | [4] 0 | [5] 0 | [6] 0 | [7] 0 | [8] 0 | [9] 0 | [10] 0

O=C1NC(=O)C(=Cc2ccc(-c3ccc(F)cc3)o2)S1 (stereo in doubt) (10 µM)
inactive: [1] 0 | [2] 0 | [3] 0 | [4] 0 | [5] 0 | [6] 0 | [7] 0 | [8] 0 | [9] 0 | [10] 0

COc1ccc2[nH]cc(/C=C3\C(=O)Nc4ccc(NC(=O)CCN5CCCCC5)cc43)c2c1 (2.5 µM)
inactive: [1] 0 | [2] 0 | [3] 0 | [4] 0 | [5] 0 | [6] 0 | [7] 0 | [8] 0 | [9] 0 | [10] 0

COc1c(NC(=O)C(=O)c2ccc(OCCN3CCOCC3)c3ccccc23)cc(C(C)(C)C)cc1NS(C)(=O)=O (2.5 µM)
inactive: [1] 0 | [2] 0 | [3] 0 | [4] 0 | [5] 0 | [6] 0 | [7] 0 | [8] 0 | [9] 0 | [10] 0

CNc1nc(Nc2cnn(C3CCN(C4COC4)CC3F)c2Cl)ncc1C(F)(F)F (stereo not given) (10 µM)
inactive: [1] 0 | [2] 0 | [3] 0 | [4] 0 | [5] 0 | [6] 0 | [7] 0 | [8] 0 | [9] 0 | [10] 0

A draw from above in order of molar mass, rising.
O=C1NC(=O)C(=Cc2ccc(-c3ccc(F)cc3)o2)S1 (stereo in doubt) (10 µM)
inactive: [1] 0 | [2] 0 | [3] 0 | [4] 0 | [5] 0 | [6] 0 | [7] 0 | [8] 0 | [9] 0 | [10] 0

O=C(NCCCNC(=O)Nc1cccc(C2=NCCN2)c1)Nc1cccc(C2=NCCN2)c1 [p32 Inhibitor M36] (10 µM)
inactive: [1] 0 | [2] 0 | [3] 0 | [4] 0 | [5] 0 | [6] 0 | [7] 0 | [8] 0 | [9] 0 | [10] 0

COc1c(NC(=O)C(=O)c2ccc(OCCN3CCOCC3)c3ccccc23)cc(C(C)(C)C)cc1NS(C)(=O)=O (2.5 µM)
inactive: [1] 0 | [2] 0 | [3] 0 | [4] 0 | [5] 0 | [6] 0 | [7] 0 | [8] 0 | [9] 0 | [10] 0

Continuation:

O=C(CNC(=O)c1ccc(-c2ccccc2)cc1)NC1CCCc2ccccc21 (stereo not given) [TAO Kinase inhibitor 1] (10 µM)
inactive: [1] 0 | [2] 0 | [3] 0 | [4] 0 | [5] 0 | [6] 0 | [7] 0 | [8] 0 | [9] 0 | [10] 0

Cc1cc(Nc2cc(Cl)nc(Oc3ccc([N+](=O)[O-])cc3)n2)n[nH]1 [Autophinib] (2.5 µM)
inactive: [1] 0 | [2] 0 | [3] 0 | [4] 0 | [5] 0 | [6] 0 | [7] 0 | [8] 0 | [9] 0 | [10] 0
